Experimental data as given in patent US20210171970A1 (CURATORS OF THE UNIVERSITY OF MISSOURI, published 2021).
No constants are given. Whether binding was seen depends on the method and setting. In cells and extracts the contact can be indirect. Some results given as binding are weak or reduced against the parent protein; the word gives no strength.

Biological target: T1, beta-carboxyltransferase (β-CT) subunit of hetACCase, ATCG00500, Arabidopsis thaliana (Arabidopsis thaliana) (UniProt P56765)
T1 sequence (looked up): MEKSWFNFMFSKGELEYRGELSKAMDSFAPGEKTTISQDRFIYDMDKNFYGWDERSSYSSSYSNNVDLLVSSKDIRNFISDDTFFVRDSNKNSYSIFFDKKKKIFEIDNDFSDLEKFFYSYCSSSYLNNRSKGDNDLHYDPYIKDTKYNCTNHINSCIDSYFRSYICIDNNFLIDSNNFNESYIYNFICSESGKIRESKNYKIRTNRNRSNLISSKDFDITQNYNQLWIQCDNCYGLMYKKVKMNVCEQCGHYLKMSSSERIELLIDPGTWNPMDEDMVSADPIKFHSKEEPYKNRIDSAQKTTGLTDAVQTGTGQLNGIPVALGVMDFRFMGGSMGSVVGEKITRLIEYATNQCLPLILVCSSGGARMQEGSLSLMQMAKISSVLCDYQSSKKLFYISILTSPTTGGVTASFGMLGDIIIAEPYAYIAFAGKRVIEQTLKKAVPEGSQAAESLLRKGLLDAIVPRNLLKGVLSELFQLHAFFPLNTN
Assay: co-IP from A. thaliana chloroplast lysate with anti-α-CT polyclonal antibody, LC-MS/MS

B1: alpha-carboxyltransferase (α-CT) subunit of hetACCase, AT2G38040, Arabidopsis thaliana (enzyme, UniProt Q9LD43 55-769, looked up)
chain: SRLKKGKKFEHPWPANPDPNVKGGVLSYLAEFKPLGDTQKPVTLDFEKPLVELEKKIVDVRKMANETGLDFTEQIITLENKYRQALKDLYTHLTPIQRVNIARHPNRPTFLDHIHNITDKFMELHGDRAGYDDPAIVTGIGTIDGKRYMFIGHQKGRNTKENIMRNFGMPTPHGYRKALRMMYYADHHGFPIVTFIDTPGAYADLKSEELGQGEAIANNLRTMFGLKVPILSIVIGEGGSGGALAIGCANKMLMLENAVFYVASPEACAAILWKTSKAAPEAAEKLRITSKELVKLNVADGIIPEPLGGAHADPSWTSQQIKIAINENMNEFGKMSGEELLKHRMAKYRKIGVFIEGEPIEPSRKINMKKREAVFSDSRKLQGEVDKLKEQILKAKETSTEAEPSSEVLNEMIEKLKSEIDDEYTEAAIAVGLEERLTAMREEFSKASSEEHLMHPVLIEKIEKLKEEFNTRLTDAPNYESLKSKLNMLRDFSRAKAASEATSLKKEINKRFQEAVDRPEIREKVEAIKAEVASSGASSFDELPDALKEKVLKTKGEVEAEMAGVLKSMGLELDAVKQNQKDTAEQIYAANENLQEKLEKLNQEITSKIEEVVRTPEIKSMVELLKVETAKASKTPGVTEAYQKIEALEQQIKQKIAEALNTSGLQEKQDELEKELAAARELAAEESDGSVKEDDDDDEDSSESGKSEMVNPSFA
binding: binds
